# Screening data, single-dose tests

Chains of the proteins cited; added tags and fusions are not shown. Residues count along the entry.
UniProt Q4DA54, 1-478: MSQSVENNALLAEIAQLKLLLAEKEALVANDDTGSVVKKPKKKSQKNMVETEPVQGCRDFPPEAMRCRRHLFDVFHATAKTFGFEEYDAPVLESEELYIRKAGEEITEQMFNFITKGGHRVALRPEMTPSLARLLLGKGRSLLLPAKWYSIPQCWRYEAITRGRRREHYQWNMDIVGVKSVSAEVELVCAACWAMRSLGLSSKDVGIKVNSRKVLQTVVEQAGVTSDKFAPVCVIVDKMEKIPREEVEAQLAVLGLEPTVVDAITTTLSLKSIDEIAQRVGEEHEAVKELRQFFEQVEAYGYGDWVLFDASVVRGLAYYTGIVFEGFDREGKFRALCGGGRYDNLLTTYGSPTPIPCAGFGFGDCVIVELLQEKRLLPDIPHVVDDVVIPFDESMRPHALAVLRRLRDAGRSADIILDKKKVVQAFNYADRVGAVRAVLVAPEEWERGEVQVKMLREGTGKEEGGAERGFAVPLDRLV
UniProt A4I591, 1-473: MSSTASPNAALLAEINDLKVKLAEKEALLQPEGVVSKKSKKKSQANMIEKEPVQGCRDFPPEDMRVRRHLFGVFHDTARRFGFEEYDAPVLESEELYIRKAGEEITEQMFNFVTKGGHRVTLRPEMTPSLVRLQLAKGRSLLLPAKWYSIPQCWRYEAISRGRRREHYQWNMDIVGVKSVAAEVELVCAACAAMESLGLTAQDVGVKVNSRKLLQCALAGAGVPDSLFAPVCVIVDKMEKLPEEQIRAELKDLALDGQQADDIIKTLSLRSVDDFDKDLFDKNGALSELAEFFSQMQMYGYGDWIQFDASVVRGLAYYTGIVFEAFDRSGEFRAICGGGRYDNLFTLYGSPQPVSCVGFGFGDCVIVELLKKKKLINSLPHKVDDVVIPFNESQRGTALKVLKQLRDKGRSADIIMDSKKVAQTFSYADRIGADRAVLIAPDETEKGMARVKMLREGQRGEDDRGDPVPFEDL

Source: ChEMBL document CHEMBL3988442, “University of Dundee, Small-Polar-MMV Screening Library” (2021).

TcHisRS: 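Enzyme assay of histidyl-tRNA synthetase; the read-out is not stated. Target: Histidine-tRNA ligase, Trypanosoma cruzi CL Brener (UniProt Q4DA54). Concentration: 30 µM. The record gives no direction; compounds that gave an IC50 in retests scored well above the rest, so higher reads as stronger inhibition. Of about 69,000 compounds tested this way, about 31 (0.045%) reached 50% or more in at least one test.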
LiHisRS: 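Histidine-tRNA ligase, Leishmania infantum (UniProt A4I591). Enzyme assay of histidyl-tRNA synthetase; the read-out is not stated. Tested at 30 µM. The record gives no direction; compounds that gave an IC50 in retests scored well above the rest, so higher reads as stronger inhibition. The assay is labelled LdHisRS but filed under L. infantum. Size under these conditions: about 69,000 compounds, about 410 of them at 50% or above in at least one test.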

Values are the deposited “Percent Effect”, in %. How 0% and 100% were set is not recorded. Most values in the screen are low, and negative values occur. Compounds were drawn at random from those tested, without regard to their results.

- O=C(O)CSc1nc(-c2ccc3c(c2)CCC3)n[nH]1 : TcHisRS: 7.522%; LiHisRS: 27.43%
- CC(C)c1nc(N2CCC(N3CCCC(O)C3)CC2)c2cnn(C)c2n1 (stereo unspecified) : TcHisRS: 20.1%; LiHisRS: 35.11%
- C=C1c2ccccc2C(=O)N1CCC(=O)N1CCNC(=O)C1 : TcHisRS: 5.703%; LiHisRS: 23.2%
- CNc1cc(CNC(=O)c2ccccc2OC)nc(-c2ccncc2)n1 : TcHisRS: 6.593%; LiHisRS: 15.94%
- CCc1nnc2n1CCN(Cc1cccc3c1OCCO3)C2 : TcHisRS: 9.621%; LiHisRS: 12.84%
- CC(=O)N1CC(c2ccnc(Nc3ccc(C)cn3)n2)C1 : TcHisRS: 3.731%; LiHisRS: -3.158%
- O=C1CCCCN1Cc1cccc(NC(=O)N2CCSCC2)c1 : TcHisRS: 1.626%; LiHisRS: 29.81%
- CC(C)(C)c1ncc2c(n1)CN(C(=O)c1ccc3[nH]cnc3c1)C2 : TcHisRS: 5.102%; LiHisRS: 17.74%
- CC(C)(C)CC(=O)N1CCCC2(CC(C(=O)Nc3ccccc3)=NO2)C1 (stereo unspecified) : TcHisRS: 0.9346%; LiHisRS: 9.722%
- Cc1ccc(N2CCc3ncnc(C)c3CC2)nn1 : TcHisRS: 0%; LiHisRS: 0.9009%
- Cn1ccc(NCc2cc3cc(F)ccc3o2)n1 : TcHisRS: 6.931%; LiHisRS: 16.48%
- Cc1sc2ncc(-c3ccnc(NC4CCN(C)CC4)n3)c(=O)n2c1C : TcHisRS: 4.52%; LiHisRS: 8.571%
- CNC(=O)CN(C)c1cncc(OCC(C)C)n1 : TcHisRS: 6.863%; LiHisRS: 8.333%
- CN1C[C@@H](N)C[C@H]1c1nc(-c2ccc3c(c2)OCO3)no1 : TcHisRS: 3.483%; LiHisRS: 24.32%
- Cc1cnn(C2CCCN(C(=O)c3ccc(N(C)C)nn3)C2)c1 (stereo unspecified) : TcHisRS: -0.7634%; LiHisRS: 13.7%
- Cc1noc([C@@H]2C[C@H]3OCC[C@H]3N(S(=O)(=O)c3cccnc3)C2)n1 : TcHisRS: 2.479%; LiHisRS: 11.43%
- Cc1cnn(Cc2ccc(NC(=O)N3CCCCC3CO)cc2)c1 (stereo unspecified) : TcHisRS: 3.097%; LiHisRS: 9.735%
- O=C(c1cc[nH]n1)N1CCCC(c2cc(C(F)(F)F)[nH]n2)C1 (stereo unspecified) : TcHisRS: 1.156%; LiHisRS: 4.386%
- CCN(CC)[C@@H]1CN(Cc2ccc(C)o2)[C@@H]2CCCO[C@H]12 : TcHisRS: 0%; LiHisRS: 8.547%
- CN(C)C(=O)c1cnc2n1CCN(Cc1cccc(C#N)c1)C2 : TcHisRS: 6.863%; LiHisRS: 22%
- CC(=O)NCC1CCCN(C(=O)Cc2c(C)noc2C)C1 (stereo unspecified) : TcHisRS: 5.473%; LiHisRS: 3.614%
- COc1cc(OC)c(C2SCC(=O)Nc3n[nH]cc32)cc1OC (stereo unspecified) : TcHisRS: -1.087%; LiHisRS: 20%
- CCc1nc(C2NC3(CCCC3)C(=O)N2CC2CC2)cs1 (stereo unspecified) : TcHisRS: 0%; LiHisRS: 0%
- CNS(=O)(=O)c1ccc(CNC(=O)NCC2CCCO2)cc1 (stereo unspecified) : TcHisRS: -1.887%; LiHisRS: 8%
- CCc1nc(C2CCCN2C(=O)c2csc(NC(C)=O)n2)no1 (stereo unspecified) : TcHisRS: 4.611%; LiHisRS: 8.929%
- Nc1nc(N)c2c(n1)OC1(CCN(C(=O)CC3CCCNC3)CC1)C2 (stereo unspecified) : TcHisRS: 5.747%; LiHisRS: 5.755%
- c1cnn(CCNCc2csc(-c3ccsc3)n2)c1 : TcHisRS: 2.29%; LiHisRS: 8.511%
- CC(C)NC(=O)NCc1nnc2n1C(C(=O)N(C)C)CC2 (stereo unspecified) : TcHisRS: 5.325%; LiHisRS: 6.897%
- CNS(=O)(=O)c1cccc(C(C)NCc2cccc(O)c2)c1 (stereo unspecified) : TcHisRS: 8.621%; LiHisRS: 4.464%
- O=C(c1cc(Cn2ccc3ccccc32)[nH]n1)N1CCCCC1CO (stereo unspecified) : TcHisRS: -4.933%; LiHisRS: -17.65%
- Cc1noc(-c2ccc(N3CCCC(C(=O)c4nccn4C)C3)nc2)n1 (stereo unspecified) : TcHisRS: 11.36%; LiHisRS: 18.33%
- Cn1cc(N2CC3(CCN(Cc4ccccc4)CC3)OCC2=O)cn1 : TcHisRS: 3.659%; LiHisRS: 17.95%
- Cc1cnc(C(=O)N2CCN(C(=O)CC(C)C)[C@@H]3CS(=O)(=O)C[C@@H]32)cn1 : TcHisRS: 3.896%; LiHisRS: 6.667%
- c1ccc(-c2nc(CNC3CCCN(c4cccnn4)C3)no2)cc1 (stereo unspecified) : TcHisRS: 26.79%; LiHisRS: 33.33%
- COCC(=O)N1CCC(c2n[nH]c3nccnc23)CC1 : TcHisRS: 6.593%; LiHisRS: 18.84%
- Nc1cncc(C(=O)N2Cc3ccccc3OC3(CCOCC3)C2)c1 : TcHisRS: 1.493%; LiHisRS: -57.89%
- NC(=O)C1(CCCc2ccccn2)CCCN(Cc2ccncc2)C1 (stereo unspecified) : TcHisRS: 6.667%; LiHisRS: 12.37%
- O=C(C1CCC1)N1CCO[C@H]2[C@H](OCCCn3cccn3)CC[C@@H]21 : TcHisRS: 0.9524%; LiHisRS: 4.167%
- CN(Cc1cc2n(n1)CCNC2)Cc1noc(C2CCC2)n1 : TcHisRS: 5.978%; LiHisRS: 10.67%
- O=C(N[C@@H]1CC[C@@H](N2CCCC2)[C@@H]1O)c1cc2cccc(F)c2[nH]1 : TcHisRS: 13.08%; LiHisRS: 11.27%
- Cc1noc(C)c1C(=O)NCc1cc[nH]n1 : TcHisRS: 6.548%; LiHisRS: 16.13%
- Cc1nc(C)n(CC2CCCN2CC(=O)NC2CCOCC2)n1 (stereo unspecified) : TcHisRS: 7.493%; LiHisRS: 5.357%
- CCc1cnc(N)nc1NCc1ccc(OC)cc1OC : TcHisRS: 5.946%; LiHisRS: 10.26%
- CN1CCN(C)C(c2nnc3ccc(C(=O)N4CCOCC4)cn23)C1 (stereo unspecified) : TcHisRS: 1.935%; LiHisRS: 17.17%

Repeated from the top, 3 entries:

* O=C(O)CSc1nc(-c2ccc3c(c2)CCC3)n[nH]1 | TcHisRS: 7.522%; LiHisRS: 27.43%
* CC(C)c1nc(N2CCC(N3CCCC(O)C3)CC2)c2cnn(C)c2n1 (stereo unspecified) | TcHisRS: 20.1%; LiHisRS: 35.11%
* C=C1c2ccccc2C(=O)N1CCC(=O)N1CCNC(=O)C1 | TcHisRS: 5.703%; LiHisRS: 23.2%